Literature values as cited in patent US7812034B2, “Method of using protease inhibitors for the treatment of liposarcomas” (City of Hope, priority 2003, dated 2010).
At least one compound was matched to its structure with a doubt left.

Tests used:
[1] = tested on: intermediate to high-grade liposarcoma; settings: patients with intermediate to high-grade liposarcoma; cited from earlier work
[2] = tested on: Primary human liposarcoma cells; settings: PPARγ ligand treatment; cited from earlier work

## Cc1c(C)c2c(c(C)c1O)CCC(C)(COc1ccc(CC3SC(=O)NC3=O)cc1)O2 (centres unmarked) [troglitazone]
[1]
  tumor biopsies: differentiation and cellular proliferation: evidence of differentiation and reduction of cellular proliferation

## CCc1ccc(CCOc2ccc(CC3SC(=O)NC3=O)cc2)nc1 (centres unmarked) [pioglitazone]
[2]
  terminal differentiation of primary human liposarcoma cells: induced to undergo terminal differentiation
